Measured data: PubChem BioAssay AID1224828 (NIAID, 2016)
Test: 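Knock-downs that increase or decrease LPS-induced p65 nuclear translocation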 (primary screen). Cells: mouse RAW264.7 G9 macrophage reporter cells (GFP-p65, Tnf promoter-mCherry). Reagent: siRNA pool against mouse genes, 100 nM. Time to read-out: 2 days siRNA transfection, then 40 min LPS before fixation. Conditions: LPS (Salmonella minnesota R595) at 10 ng/ml. Measured: 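Imaged p65 nuclear translocation ratio, normalised to the plate median, converted to robust z-scores and averaged across two replicates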. Reading the numbers: p65 translocation robust z-score: higher = more nuclear NF-kappaB p65 after LPS than the plate median; nuclear/cytoplasmic p65 ratio: higher = more nuclear NF-kappaB p65. Call rule: 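Active if robust z is above 3.3 (negative regulators) or below -1.56, the Tlr4 control median (positive regulators); activity score 50 or more; control wells not called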. Meaning of the calls: active = hit (p65 shift raised or lowered); inactive = no clear change.
The deposit covers about 17,000 reagents; below is an unselected part. In the full data, 762 (4.5%) were called active. 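Active calls include both raised and lowered p65 entry, mostly lowered; wells with fewer than 50 cells lack a z-score.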 The raw values are shown without normalisation.

no.	target	PubChem SID	p65 translocation robust z-score	nuclear/cytoplasmic p65 ratio, rep 1	nuclear/cytoplasmic p65 ratio, rep 2	low cell count flag	call
1	Rbfox2 (RNA binding protein, fox-1 homolog (C. elegans) 2)	SID315475921	1.42	1.56	1.41	enough cells to score	inactive
2	Padi6 (peptidyl arginine deiminase, type VI)	SID315479646	0.69	1.52	1.33	enough cells to score	inactive
3	Tfap4 (transcription factor AP4)	SID315475809	-1.85	1.34	1.18	enough cells to score	active
4	Ythdf3 (YTH N6-methyladenosine RNA binding protein 3)	SID315478688	0.63	1.49	1.32	enough cells to score	inactive
5	Ccdc122 (coiled-coil domain containing 122)	SID315476741		1.49	1.61	fewer than 50 cells per well; well left out of scoring	inactive
6	Angptl6 (angiopoietin-like 6)	SID315474118	1.86	1.94	1.91	enough cells to score	inactive
7	Cbx2 (chromobox 2)	SID315465803	-0.64	1.51	1.67	enough cells to score	inactive
8	Hpcal4 (hippocalcin-like 4)	SID315477179	1.2	1.8	1.74	enough cells to score	inactive
9	Nfia (nuclear factor I/A)	SID315468149	0.04	1.47	1.41	enough cells to score	inactive
10	Nfia (nuclear factor I/A)	SID315468150	-1.08	1.25	1.43	enough cells to score	inactive
11	Zeb1 (zinc finger E-box binding homeobox 1)	SID315469618	-0.32	1.5	1.43	enough cells to score	inactive
12	Letm1 (leucine zipper-EF-hand containing transmembrane protein 1)	SID315471499	2.58	2.12	1.92	enough cells to score	inactive
13	Mvk (mevalonate kinase)	SID315468040	-1.49	1.35	1.19	enough cells to score	inactive
14	Me2 (malic enzyme 2, NAD(+)-dependent, mitochondrial)	SID315476575	-1.17	1.52	1.39	enough cells to score	inactive
15	Apcs (amyloid P component, serum)	SID315469094	0.9	1.69	1.81	enough cells to score	inactive
16	Vmn1r6 (vomeronasal 1 receptor 6)	SID315477282	2.12	1.72	1.42	enough cells to score	inactive
17	Acss2 (acyl-CoA synthetase short-chain family member 2)	SID315472024	-0.47	1.58	1.52	enough cells to score	inactive
18	Ltb4r2 (leukotriene B4 receptor 2)	SID315471735	-0.96	1.35	1.47	enough cells to score	inactive
19	Ncoa5 (nuclear receptor coactivator 5)	SID315478670	-1.18	1.25	1.23	enough cells to score	inactive
20	Rbbp4	SID315468908	0.2	1.55	1.54	enough cells to score	inactive
21	Sri (sorcin)	SID315476829	1.73	1.68	1.4	enough cells to score	inactive
22	Ncoa6 (nuclear receptor coactivator 6)	SID315471513	0.15	1.46	1.37	enough cells to score	inactive
23	Gp6 (glycoprotein 6 platelet)	SID315479706	0.14	1.41	1.44	enough cells to score	inactive
24	Slc35d1	SID315479628		1.89	1.38	fewer than 50 cells per well; well left out of scoring	inactive
25	Spata2l (spermatogenesis associated 2-like)	SID315475615		1.21	1.29	fewer than 50 cells per well; well left out of scoring	inactive
26	Zkscan6 (zinc finger with KRAB and SCAN domains 6)	SID315471009		1.15	1.18	fewer than 50 cells per well; well left out of scoring	inactive
27	Flacc1 (flagellum associated containing coiled-coil domains 1)	SID315476742	-0.82	1.5	1.48	enough cells to score	inactive
28	Vdac3 (voltage-dependent anion channel 3)	SID315469991		1.19	1.08	fewer than 50 cells per well; well left out of scoring	inactive
29	Or51af1 (olfactory receptor family 51 subfamily AF member 1)	SID315480683		1.7	1.57	fewer than 50 cells per well; well left out of scoring	inactive
30	Cspg5 (chondroitin sulfate proteoglycan 5)	SID315470728	0.19	1.66	1.75	enough cells to score	inactive
31	Krt81 (keratin 81)	SID315472125	-1.55	1.3	1.15	enough cells to score	inactive
32	Or4a75 (olfactory receptor family 4 subfamily A member 75)	SID315480434	0.58	1.69	1.5	enough cells to score	inactive
33	Slc23a3	SID315470076		1.29	1.21	fewer than 50 cells per well; well left out of scoring	inactive
34	Chrna2 (cholinergic receptor nicotinic alpha 2 subunit)	SID315476949	-0.39	1.34	1.39	enough cells to score	inactive
35	Pakap (paralemmin A kinase anchor protein)	SID315465370	0.54	1.71	1.69	enough cells to score	inactive
36	Pakap (paralemmin A kinase anchor protein)	SID315479616	1.9	1.7	1.45	enough cells to score	inactive
37	Ttl (tubulin tyrosine ligase)	SID315473886	-0.92	1.27	1.13	enough cells to score	inactive
38	Syt2 (synaptotagmin II)	SID315469559	0.47	1.5	1.24	enough cells to score	inactive
39	Abi3bp (ABI family member 3 binding protein)	SID315481377	0.99	1.72	1.68	enough cells to score	inactive
40	Mavs (mitochondrial antiviral signaling protein)	SID315478644		1.77	1.7	fewer than 50 cells per well; well left out of scoring	inactive

Active calls, of those listed so far:
target	PubChem SID	p65 translocation robust z-score	nuclear/cytoplasmic p65 ratio, rep 1	nuclear/cytoplasmic p65 ratio, rep 2	low cell count flag	call
Tfap4 (transcription factor AP4)	SID315475809	-1.85	1.34	1.18	enough cells to score	active
